Experiment: Blood brain barrier permeability (PVDF membrane coated with porcine brain polar lipid extract)
Format: in vitro ADME
Settings: PAMPA, read-out: Mean Pe
Description: Preparation of Donor Solution a) 0.2 mM working solution was prepared by diluting 10 mM stock solution with DMSO. b) 10 μM donor solution (5% DMSO) was prepared by diluting 20 μL of working solution with 380 μL PBS. 2) 150 μL of 10 μM donor solutions to each well of the donor plate, whose PVDF membrane was precoated with 5 μL of 1% brain polar lipid extract (Porcine)/dodecane mixture. Duplicates were prepared. 3) 300 μL of PBS was added to each well of the PTFE acceptor plate. 4) The donor plate and acceptor plate were combined together and incubated for 4h at room temperature with shaking at 300 rpm. 5) Preparation of TO sample: 20 μL donor solution was transferred to new well followed by the addition of 250 μL PBS (DF: 13.5), 130 μL ACN (containing internal standard) as TO sample. 6) Preparation of acceptor sample: The plate was removed from incubator. 270 μL solution was transferred from each acceptor well and mixed with 130 μL ACN (containing internal standard) as acceptor sample. 7) Preparation of donor sample: […] was transferred from each donor well and mixed with 250 μL PBS (DF: 13.5), 130 μL ACN (containing internal standard) as donor sample. 8) Acceptor samples and donor samples were all analyzed by LC/MS/MS.

Papp at 4 h, 10 μM: < 0.00346 ×10⁻⁶ cm/s
Structure (SMILES): CC(C)NCC(O)COc1ccc(CC(N)=O)cc1 (stereo not shown) [Atenolol]

— patent publication US20240342138A1, “MICROTUBULE TARGETING AGENTS” (BPGbio, Inc., priority 2023, published 2024)
